This assay deals with PD-1 biotin (UniProt Q15116). In words: ELISA-type chemiluminescence assay: PD-1 biotin binding to plate-coated PD-L1 (2 ug/ml) with the antibody titrated; the antibody enhances the signal.

By UniProt entry, the sequences of proteins in these tests, tags left out. Residues count along the entry.
UniProt Q15116, residues 25-167: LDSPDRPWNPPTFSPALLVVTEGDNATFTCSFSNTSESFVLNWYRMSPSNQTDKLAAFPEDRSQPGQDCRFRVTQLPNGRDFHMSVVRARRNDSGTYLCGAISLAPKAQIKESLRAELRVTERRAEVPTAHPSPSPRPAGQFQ

Results are given in words; binding and its absence hold for the method and conditions named. Some binding calls cover weakened binding; strength is not graded here.

B1: antibody 723C2 in human IgG4Pro backbone without the DC to DY mutation in H-CDR3 (antibody, V domains shown)
VH: EVQLVESGGGLVQPGGSLKLSCAASGFTFSDYYMSWVRQTPEKRLEWVAYISSGGGSSYYPDSVKGRFTISRDNTKNTLYLQMSSLKSEDTAVYYCARLPHYFAMDCWGQGTSVTVSS
VL: EIVLTQSPTTMAASPGEKITITCSASSSISSDYLHWYQQKPGFSPELLIYRTSNLASGVPARFSGSGSGTSYSLTIGSMEAEDVATYYCQQGTSLPRAFGGGTKLEIK
For B1, the binding result is listed as “binds”.

Source of the values: patent US20260070984A1.
